Measured values reported in PubChem BioAssay AID652054 (National Center for Advancing Translational Sciences (NCATS), 2013).
In all, about 360,000 compounds went through this assay and about 9,100 (2.5%) were called active. This list was built around the results that the source calls inconclusive (neither active nor inactive); the mix of calls is not that of the screen. Rule as the data show it: active = max response below about -50%; inconclusive = no clear call, values can overlap the other calls; inactive = above that.

Chains of the proteins cited; added tags and fusions are not shown.
UniProt P35462, whole entry, looked up: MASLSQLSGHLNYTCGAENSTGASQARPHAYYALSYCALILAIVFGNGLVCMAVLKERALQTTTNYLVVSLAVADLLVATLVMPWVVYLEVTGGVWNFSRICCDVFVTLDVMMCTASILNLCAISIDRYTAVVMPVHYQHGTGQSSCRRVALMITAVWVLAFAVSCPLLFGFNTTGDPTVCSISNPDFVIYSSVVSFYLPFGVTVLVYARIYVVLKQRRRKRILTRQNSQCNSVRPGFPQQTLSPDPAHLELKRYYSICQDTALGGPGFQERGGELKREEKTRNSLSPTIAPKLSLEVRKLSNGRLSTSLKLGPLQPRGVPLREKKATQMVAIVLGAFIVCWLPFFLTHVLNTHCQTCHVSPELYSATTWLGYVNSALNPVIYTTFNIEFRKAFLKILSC

Biological target: D(3) dopamine receptor (Homo sapiens) (UniProt P35462)
Assay: qHTS of D3 Dopamine Receptor Antagonist: qHTS
Details: D3R cells, DiscoveRx beta-arrestin luminescence, antagonist mode; stronger effect = lower value
Procedure, shortened: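 Cells plated overnight at 1500 cells/well, then exposed to library compounds with dopamine controls for 90 minutes at 37 degrees C. DiscoveRx reagent added for 30–60 minutes at room temperature; luminescence read, quantitative HTS format.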
% is scaled to controls: 0 for no effect and ±100 for the full control effect.

Compound	max response, negative = inhibition
CCOc1ccc(Cl)cc1-c1cc(C(=O)Nc2ccc(F)cc2)[nH]n1	inconclusive: -37.1%
CC12CC3(C)CC(C)(C1)CC(NC(=O)N1CCCC1)(C2)C3	inactive: 5.59%
CCc1nn(CC(=O)NCCCN2CCc3ccccc3C2)c(=O)c2cc3sccc3n12	active: -112%
Cc1cc(-c2ccc(S(=O)(=O)N(C)c3ccc(C)c(C)c3)s2)on1	inconclusive: -39.1%
Cc1ccc(NC(=S)NC2CCSc3ccccc32)cc1 (stereo not drawn)	inconclusive: -31.5%
Cc1ccc(NC(=S)NC2CCN(Cc3ccccc3)CC2)cc1C	active: -52.5%
O=C(c1ccc2c(c1)OCO2)C1CCCN(Cc2cn[nH]c2-c2cccc(F)c2)C1 (stereo not drawn)	inactive: -17.7%
Cc1[nH]n(-c2nc(-c3ccccc3F)cc(=O)[nH]2)c(=O)c1CCO	inactive: -9.16%
CC(C)CCOc1ncnc2c1sc1nc3c(cc12)CSC(C)(C)C3	inactive: 1.82%
CSc1ccc(CNCCCSc2ncccn2)cc1	inconclusive: -31.1%
Cc1cc(=O)n(CC=C(Cl)Cl)c2ccccc12	inconclusive: -42.1%
O=C(CN1CCOc2ccccc21)N1CCC(Cc2ccccc2)CC1	inactive: 0%
Cc1nnc(NC(=O)CSc2ncnc3c2cnn3-c2ccccc2C)s1	active: -62.7%
COc1ccc(OC)c(S(=O)(=O)N2CCN(c3ccccn3)CC2)c1	active: -104%
O=C(NCCOC(=O)c1ccc(C(=O)OCCNC(=O)c2cccnc2)s1)c1cccnc1	inconclusive: -37.2%
C[C@@H]1CN([C@H](C)CO)C(=O)CCCn2nncc2CO[C@@H]1CN(C)C(=O)Nc1ccc2c(c1)OCO2	active: -60.3%
O=C(CSc1ncnc2c1oc1ccccc12)Nc1cccc(Cl)c1	inactive: 14.2%
COc1ccc2c(c1)[C@H]1[C@H](CO2)[C@H](c2ccccc2)[C@]2(C)C(=O)Nc3cc(C)ccc3C(=O)N12	inconclusive: -34.2%
COc1ccc(C(=O)CSc2nc3ccccc3n2CC(=O)NC(C)(C)C)cc1	inconclusive: -38.8%
O=C(NCCCN1CCN(c2ccccc2F)CC1)C1CC(=O)N(C2CCCC2)C1 (stereo not drawn)	active: -77.2%
Cc1cc(-c2nnc3n2N=C(c2ccc(-c4ccccc4)cc2)CS3)n[nH]1	inconclusive: -37.6%
CS(=O)(=O)N1CCN(C(=O)c2csc3ccccc23)CC1	inactive: 22.7%

Compound	max response, negative = inhibition
Cc1ccc(CNC(=O)CSc2c3c(nc4ccc(Cl)cc24)CCCC3)o1	inconclusive: -40.4%
CCCNC(=O)C(Cc1ccc(I)cc1)NC(=O)c1ccc2ccccc2n1 (stereo not drawn)	inconclusive: -39.1%
CCOC(=O)[C@H]1[C@H]2COc3cc(OC)ccc3[C@@H]2N2C(=O)c3ccc(F)cc3NC(=O)[C@@]12C	inconclusive: -44.7%
CCOC(=O)c1c(NC(=O)Cc2ccccc2)sc2c1CCN(C)C2	inconclusive: -45.7%
CN(C)Cc1csc(Nc2ccc(C(F)(F)F)cn2)n1	inconclusive: -38.5%
CCCCCCCCCCS(=O)(=O)N/N=C/c1ccc([N+](=O)[O-])cc1	inconclusive: -31.6%
O=C1CCCc2c1cc(C(=O)Nc1ccc(Cl)cn1)c(=O)n2-c1ccccc1	inconclusive: -30.1%
Cc1ccc(C2=NC3(CCCCC3)N=C2SCC(=O)Nc2ccc3c(c2)OCCO3)cc1	inactive: 0%
O=C(O)c1ccc(CNc2ccccc2C(=O)O)cc1	inconclusive: -46.4%
O=C(NC1CCCCC1)C(c1ccc(C(F)(F)F)cc1)n1c(=O)c(-c2cc3ccccc3[nH]2)nc2ccccc21 (stereo not drawn)	inactive: 30.4%
COC(=O)[C@@H]1CC[C@@](C)(c2ccc(OC)cc2)C1(C)C	inconclusive: -38%
O=C(CSc1nc2cc([N+](=O)[O-])ccc2n1-c1ccc(F)cc1)NC1CCS(=O)(=O)C1 (stereo not drawn)	inconclusive: -40.3%
CC(=O)c1cccc(CN2CCN(Cc3ccc(C)cc3)C(CCO)C2)c1 (stereo not drawn)	active: -74.2%
Cc1ccccc1NC(=O)CCN1CCCCCC1	inconclusive: -37.1%
O=c1oc(-c2ccc(Cl)cc2[N+](=O)[O-])nc2ccccc12	inactive: -15.2%
CCc1ccc(C(=O)/C=C2\Sc3ccccc3NC2=O)cc1	active: -147%
COc1ccc(-c2cc(C#N)nc(Cl)n2)cc1	inconclusive: -31.9%
COC(=O)c1[nH]c2cc(OC)ccc2c1NC(=O)CCN1CCN(c2cccc(C)c2C)CC1	active: -79.5%
COc1ccc(C(CNC(=O)c2ccc(Cl)c(S(=O)(=O)N3CCCC3)c2)N2CCCC2)cc1 (stereo not drawn)	active: -77.1%
CC(C)C(=O)Nc1nnc(S(=O)(=O)N(C)c2ccc(Cl)cc2)s1	inactive: -2.56%
COc1ccc(C(=O)NC(=S)N(C)C2CCCCC2)cc1Br	inconclusive: -45.9%
Cc1cc(N2C(=O)C3C4C=CC(C4)C3C2=O)ccc1Br (stereo not drawn)	inconclusive: -30.3%

Among those listed so far, these have a nitro group on carbon.
Compound	max response, negative = inhibition
CCCCCCCCCCS(=O)(=O)N/N=C/c1ccc([N+](=O)[O-])cc1	inconclusive: -31.6%
O=C(CSc1nc2cc([N+](=O)[O-])ccc2n1-c1ccc(F)cc1)NC1CCS(=O)(=O)C1 (stereo not drawn)	inconclusive: -40.3%
O=c1oc(-c2ccc(Cl)cc2[N+](=O)[O-])nc2ccccc12	inactive: -15.2%

More structures

Compound	max response, negative = inhibition
O=C(NCCN1CCOCC1)[C@H](Cc1ccccc1)N1C(=O)c2ccccc2C1=O	inconclusive: -39.4%
CCOc1ccc(-c2[nH]nc3c2C(c2cccnc2)C(C#N)=C(N)O3)cc1 (stereo not drawn)	active: -51%
OC(CNC1Cc2ccccc2C1)COc1ccc(Cl)cc1 (stereo not drawn)	inconclusive: -35.8%
O=C(Oc1cccc2ccccc12)c1ccco1	inactive: 6.09%
COc1cc(/C=C(\C#N)c2nc3ccccc3[nH]2)ccc1OC(=O)c1ccco1	inconclusive: -33.2%
O=C(Nc1cc(Cl)cc(Cl)c1)C1CC(=O)N(C2CCCC2)C1 (stereo not drawn)	inconclusive: -32.1%
CCNC(=O)N1c2ccc(OCC)cc2C(C)=CC1(C)C	inactive: -29.5%
CC(=O)Nc1ccc(Oc2ccc3nc(C)[nH]c3c2)cc1	inconclusive: -37.4%
Cc1ccc(CNS(=O)(=O)c2ccc(-n3cnnn3)c(C)c2)cc1	inconclusive: -31.1%
NS(=O)(=O)c1cccc(NC(=O)c2cc(=O)c3ccccc3o2)c1	inactive: 13.6%
CN1CCN(c2ccc(NC(=O)c3ccc(C#N)cc3F)cc2Cl)CC1	active: -56.9%
O=[N+]([O-])c1ccc2nc(-c3ccccc3)[nH]c2c1	inconclusive: -31.8%
CCOC(=O)C1(C)CCCN(C(=O)c2cccc(OC(F)(F)F)c2)C1 (stereo not drawn)	inconclusive: -47.8%
N#CC1=C(SCC(=O)c2ccccc2)NC2=C(C(=O)CCC2)C1c1ccco1 (stereo not drawn)	inconclusive: -40.7%
COc1ccc(OC)c(CN2CCN(Cc3cc(=O)oc4cc(O)ccc34)CC2)c1	inactive: -22.6%
Cc1cccn2c(=O)c(C=O)c(Nc3ccccc3)nc12	inactive: 7.21%
O=C(c1ccc(F)cc1)N1CCC(c2ccccc2)C1 (stereo not drawn)	active: -65.1%
O=C(Nc1cc(Cl)ccc1Cl)C1CC(=O)N(c2ccc(Br)cc2)C1 (stereo not drawn)	active: -54.6%
CCN(CC)CCN1CNC(=S)NC1	inactive: -13%
CCN(CC)C(=O)C1=C(C)N(Cc2ccc(OC)cc2)C(=O)C(CC(=O)NCCN2CCOCC2)C1 (stereo not drawn)	inconclusive: -44.9%
CCN(CC)CCOc1nc(C)nc2c1oc1ccccc12	inconclusive: -30.4%
COc1ccccc1/C=C/C(=O)OCC(=O)NC1CCCCCCC1	inactive: -26.8%

Compound	max response, negative = inhibition
O=C(Nc1ccccc1)C1=C[C@H](c2csc3ccccc23)C[C@H](OCc2ccc(CO)cc2)O1	inactive: 3.7%
COc1cccc(-c2nnc(SCC(=O)Nc3ccc4c(c3)OCCO4)n2Cc2ccco2)c1	inconclusive: -35.5%
N#Cc1ccccc1NC(=O)CSc1nnc(-c2ccncc2)o1	inconclusive: -30.2%
CCN(CC)C(=O)C1=C(C)N(Cc2ccc(F)cc2)C(=O)C(CC(=O)NC2CCCCC2)C1 (stereo not drawn)	inconclusive: -37.9%
COc1ccc(N=Nc2cc(OC)c(N)cc2OC)cc1	inconclusive: -35.2%
Cc1cc(C)cc(OCC(=O)Nc2ccccc2N2CCCCC2)c1	inactive: 32.2%
COc1ccc(C(C#N)c2nc3ccccc3nc2Cl)cc1 (stereo not drawn)	inconclusive: -37.5%
O=C(Cc1cccs1)N/N=C\c1ccc([N+](=O)[O-])s1	inactive: -2.01%
CC1C(=O)C(C)C(c2ccc(Br)cc2)NC1c1ccc(Br)cc1 (stereo not drawn)	inactive: -25.3%
O=C(OCN1C(=O)c2ccccc2C1=O)c1cccnc1SC(F)F	inactive: 9.08%
CCc1nnc(NC(=O)CSc2nnc(Cc3cc(=O)[nH]c(=O)[nH]3)n2-c2ccc(OC)cc2)s1	inconclusive: -45.2%
COc1ccc(-c2ccc(C(=O)NCCN3CCOCC3)c3occc23)c(C)c1	active: -78.2%
CC(C)c1ccc(-c2cc(C(=O)N3N=C(C(F)F)CC3(O)C(F)F)c3ccccc3n2)cc1 (stereo not drawn)	inactive: -7.96%
O=C(CNC(=O)c1ccc2ccccc2c1)NCc1ccc(F)cc1	inconclusive: -32.7%
Cc1c(Cc2ccccc2)c(=O)oc2cc(OCC(=O)N3CCC(C(=O)O)CC3)ccc12	inconclusive: -33.8%
COc1cc(/C=C(\C#N)C(=O)NCC2CCCO2)ccc1OCC(=O)O (stereo not drawn)	inconclusive: -35.2%
CCn1c(CSc2nc(C)cc(C)n2)nnc1SCC(=O)Nc1cccc2ccccc12	inconclusive: -34.3%
Cc1ccc2oc(C(=O)NCc3ccccc3)cc(=O)c2c1	inactive: -1.29%
O=C(NCCCCCCNC(=O)c1ccc(Br)s1)c1ccc(Br)s1	inconclusive: -38.5%
CCCn1c(/C=C/c2ccco2)nc2ccccc21	inactive: 7.83%
CN1CCN(c2ccc(-c3cccc(NC(=O)COc4ccc(Cl)cc4)c3)nn2)CC1	inconclusive: -31.3%
O=C(Nc1cnn(Cc2ccc(Cl)c(Cl)c2)c1)c1nc2ncccn2n1	inconclusive: -30.8%
